Experimental data: publication PMC5827204
These are yes or no findings as the source states them, for the method shown. In cells and extracts the contact can be indirect. Some entries that bind do so weakly or less than the wild type.

Amino acid sequences for entries named in this document (tags omitted).
UniProt P41047: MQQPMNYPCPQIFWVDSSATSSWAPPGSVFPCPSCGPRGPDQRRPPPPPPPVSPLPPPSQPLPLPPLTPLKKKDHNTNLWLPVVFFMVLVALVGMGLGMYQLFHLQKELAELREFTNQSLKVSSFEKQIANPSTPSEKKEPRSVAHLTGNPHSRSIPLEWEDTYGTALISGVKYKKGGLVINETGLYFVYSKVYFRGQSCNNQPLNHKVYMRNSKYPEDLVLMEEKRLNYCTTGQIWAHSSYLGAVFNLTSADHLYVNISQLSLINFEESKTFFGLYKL
UniProt P09382: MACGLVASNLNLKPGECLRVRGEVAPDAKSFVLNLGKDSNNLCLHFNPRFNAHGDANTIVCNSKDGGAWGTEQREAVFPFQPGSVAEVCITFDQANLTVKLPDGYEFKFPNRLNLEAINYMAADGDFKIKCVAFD

Biological target: Fas ligand (mouse (endogenous in CD8+ T cells from spleen)) (UniProt P41047)
Experiment: co-IP; CD8+ T cells from mouse spleen incubated with anti-CD3 and anti-CD28 mAb for 18 h, pre-incubated with or without recombinant Gal1 (25 ug/ml) for 15 min; 500 ug cell lysate with 2 ug anti-FasL (sc-956) or isotype control antibody, Protein G PLUS-Agarose, immunoblotting; only the binder purified

- binding: binds
Substance: recombinant galectin-1 (from UniProt P09382 1-135)
